Results as given in patent US20250251402A1, “METHODS OF DETECTING MOLECULAR AGGREGATES USING IMAGE CORRELATION SPECTROSCOPY (ICS)” (The General Hospital Corporation, priority 2022, published 2025).
At least one structure is not confirmed: it was looked up by name or label, or the drawing left a doubt.

Assays:
Type in all cases: cell-based
[1] = test system: HepG2 cells; experiment: Autocorrelation (ICS DA) of 53BP1 in phenotypic screen images, HepG2
Procedure: Images from the original study (8) were accessed through the Image Data Resource (32) API on the Open Microscopy environment. Nuclei were segmented using StarDist (33) on the BFP channel image. Segmented nuclei were then analyzed by image correlation spectroscopy autocorrelation (34) in the TP53BP1 channel and the average degree of aggregation (DA) was calculated.
We accessed the original phenotypic screen (8) images through the IDR API on the Open Microscopy server. The screen contained three different cell lines that had endogenous TP53BP1 labeled GFP as a marker protein. We first identified all the images from these three cell lines (>60,000 images in total), then segmented the nuclei of each cell using the BFP channel image. Segmented nuclear regions were then transferred to the TP53BP1 image and image autocorrelation was performed on each nucleus. The degree of aggregation (DA, a measurement of fluorophore clustering) for each nucleus was then averaged to produce an overall image 53BP1 DA that corresponded to the compound and compound concentration. […] The activity of each compound in each cell line was then determined by fitting a linear regression to the DA as a function of compound concentration. The slope and significance versus the null hypothesis (slope equal to zero) of DA vs. concentration was then determined. […]

[2] = test system: HT1080 cells; experiment: PARP1 immunofluorescence ICS DA in HT1080 cells; conditions: HT1080, 100 μM TMZ overnight vs control
[3] = test system: SUMO-2/3; experiment: SUMO-2/3 recruitment to DNA damage by ICS autocorrelation, three cell lines; conditions: three different cell lines, 24 hours
[4] = test system: 9 cell lines; experiment: RPA1 ICS DA in 9 cell lines; conditions: 100 μM TMZ overnight vs untreated

| SMILES | 53BP1 DA vs. concentration regression (53BP1 recruitment) [1] | PARP1 ICS DA (aggregation) [2] | SUMO-2/3 recruitment to DNA damage (ICS DA) [3] | RPA1 ICS DA [4] |
| --- | --- | --- | --- | --- |
| N=C1NC(=O)/C(=C/c2ccc(O)cc2)S1 [Mirin] | strong response | – | – | – |
| Cn1nnc2c(C(N)=O)ncn2c1=O [TMZ, temozolomide] | – | does not aggregate | dependent on the temozolomide (TMZ) dose | increased RPA1 DA |
